Results are given in words; binding and its absence hold for the method and conditions named. Some results given as binding are weak or reduced against the parent protein; the word gives no strength.
Key:
[1] = target: secreted E1E2 with c-Fos/c-Jun leucine zipper scaffold (sE1E2.LZ) (Hepatitis C virus H77; human); assay: summary of the ELISA and SPR results
[2] = target: membrane-bound E1E2 (mbE1E2) (Hepatitis C virus, isolate H77C (genotype 1a)) (UniProt P27958); assay: SPR, antigen immobilized, CD81-LEL injected
[3] = target: secreted E1E2 with c-Fos/c-Jun leucine zipper scaffold (sE1E2.LZ) (Hepatitis C virus H77; human); assay: SPR, antigen immobilized, CD81-LEL injected

Measured: binding

B1: CD81 large extracellular loop (CD81-LEL) (receptor, UniProt P60033 113-201, looked up, not shown: small tags and cut ends)
chain: FVNKDQIAKDVKQFYDQALQQAVVDDDANNAKAVVKTFHETLDCCGSSTLTALTTSVLKNNLCPSGSNIISNLFKEDCHQKIDDLFSGK
binds: all assays above

Reference: patent publication US20240016923A1
